Measurements: the supplement of paper PMC8612539
≈ marks a conversion by molar mass, not a printed value. The source gives many values for each of these; only a part stands here.

System: Escherichia coli
Experiment: minimum inhibitory concentration (MIC)
Description: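 Broth microdilution MIC (Sensititre BOPO7F bovine plate, CLSI methods) of 19 antimicrobials against field isolates of P. multocida, M. haemolytica, H. somni (deep nasopharyngeal swabs) and E. coli, Enterococcus spp. (rectal swabs) from weaned dairy heifers. Incubation 16-24 h at 35 C. MIC is the lowest concentration preventing visible growth. Values with <= or > lie at the tested range limits. Trimethoprim-sulfamethoxazole is given as the trimethoprim component of a 1:19 mixture.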

NC[C@@H]1O[C@H](O[C@H]2[C@@H](O)[C@H](O[C@@H]3[C@@H](O)[C@H](N)C[C@H](N)[C@H]3O[C@H]3O[C@H](CN)[C@@H](O)[C@H](O)[C@H]3N)O[C@@H]2CO)[C@H](N)[C@@H](O)[C@@H]1O [Neomycin]
Settings	minimum inhibitory concentration [µg/mL]
isolate (source animal id): 221	≤ 4
isolate (source animal id): 222	≤ 4
isolate (source animal id): 223	≤ 4
isolate (source animal id): 224	≤ 4
isolate (source animal id): 225	≤ 4
isolate (source animal id): 226	≤ 4
isolate (source animal id): 227	≤ 4
isolate (source animal id): 228	≤ 4
isolate (source animal id): 229	≤ 4
isolate (source animal id): 230	≤ 4
isolate (source animal id): 231	≤ 4
isolate (source animal id): 232	≤ 4
isolate (source animal id): 233	16 (≈ 26 µM)
isolate (source animal id): 234	≤ 4
isolate (source animal id): 235	≤ 4
isolate (source animal id): 236	≤ 4
isolate (source animal id): 237	≤ 4
isolate (source animal id): 238	≤ 4
isolate (source animal id): 239	≤ 4
isolate (source animal id): 240	≤ 4
isolate (source animal id): 241	≤ 4
isolate (source animal id): 242	≤ 4
isolate (source animal id): 243	≤ 4
isolate (source animal id): 244	≤ 4
isolate (source animal id): 245	≤ 4
isolate (source animal id): 246	≤ 4
isolate (source animal id): 247	≤ 4
isolate (source animal id): 248	≤ 4
isolate (source animal id): 249	≤ 4
isolate (source animal id): 250	≤ 4
isolate (source animal id): 251	≤ 4
isolate (source animal id): 252	≤ 4
isolate (source animal id): 253	≤ 4
isolate (source animal id): 254	≤ 4
isolate (source animal id): 255	≤ 4
isolate (source animal id): 256	≤ 4
isolate (source animal id): 257	≤ 4
isolate (source animal id): 258	≤ 4
isolate (source animal id): 259	≤ 4
isolate (source animal id): 260	≤ 4
isolate (source animal id): 261	≤ 4
isolate (source animal id): 262	> 32
isolate (source animal id): 263	≤ 4
isolate (source animal id): 264	≤ 4
isolate (source animal id): 265	≤ 4
isolate (source animal id): 266	≤ 4
isolate (source animal id): 267	≤ 4
isolate (source animal id): 268	≤ 4
isolate (source animal id): 269	≤ 4
isolate (source animal id): 270	≤ 4
isolate (source animal id): 271	≤ 4
isolate (source animal id): 272	≤ 4
isolate (source animal id): 273	≤ 4
isolate (source animal id): 274	≤ 4
isolate (source animal id): 275	≤ 4
isolate (source animal id): 276	≤ 4
isolate (source animal id): 277	≤ 4
isolate (source animal id): 278	≤ 4
isolate (source animal id): 279	≤ 4
isolate (source animal id): 280	≤ 4
isolate (source animal id): 281	≤ 4
isolate (source animal id): 282	≤ 4
isolate (source animal id): 283	≤ 4
isolate (source animal id): 284	≤ 4
isolate (source animal id): 285	≤ 4
isolate (source animal id): 286	> 32
isolate (source animal id): 287	> 32
isolate (source animal id): 288	≤ 4
isolate (source animal id): 289	≤ 4
isolate (source animal id): 290	> 32
isolate (source animal id): 291	> 32
isolate (source animal id): 292	> 32
isolate (source animal id): 293	≤ 4
isolate (source animal id): 294	≤ 4
isolate (source animal id): 295	> 32
isolate (source animal id): 296	≤ 4
isolate (source animal id): 297	≤ 4
isolate (source animal id): 298	≤ 4
isolate (source animal id): 299	≤ 4
isolate (source animal id): 300	≤ 4
isolate (source animal id): 301	≤ 4
isolate (source animal id): 302	≤ 4
isolate (source animal id): 303	≤ 4
isolate (source animal id): 304	≤ 4
isolate (source animal id): 305	≤ 4
isolate (source animal id): 306	≤ 4
isolate (source animal id): 307	≤ 4
isolate (source animal id): 308	≤ 4
isolate (source animal id): 309	> 32
isolate (source animal id): 310	≤ 4
isolate (source animal id): 311	16 (≈ 26 µM)
isolate (source animal id): 312	≤ 4
isolate (source animal id): 313	32 (≈ 52.1 µM)
isolate (source animal id): 314	≤ 4
isolate (source animal id): 315	≤ 4
isolate (source animal id): 316	32 (≈ 52.1 µM)
isolate (source animal id): 317	> 32
isolate (source animal id): 318	> 32
isolate (source animal id): 319	≤ 4
isolate (source animal id): 320	32 (≈ 52.1 µM)
isolate (source animal id): 321	≤ 4
isolate (source animal id): 322	16 (≈ 26 µM)
isolate (source animal id): 323	> 32
isolate (source animal id): 324	≤ 4
isolate (source animal id): 325	> 32
isolate (source animal id): 326	≤ 4
isolate (source animal id): 327	≤ 4
isolate (source animal id): 328	≤ 4
isolate (source animal id): 329	≤ 4
isolate (source animal id): 330	≤ 4
isolate (source animal id): 331	32 (≈ 52.1 µM)
isolate (source animal id): 332	16 (≈ 26 µM)
isolate (source animal id): 333	32 (≈ 52.1 µM)
isolate (source animal id): 334	> 32
isolate (source animal id): 335	> 32
isolate (source animal id): 336	≤ 4
isolate (source animal id): 337	32 (≈ 52.1 µM)
isolate (source animal id): 338	> 32
isolate (source animal id): 339	≤ 4
isolate (source animal id): 340	> 32
isolate (source animal id): 341	≤ 4
